About 3,700 (7%) of roughly 53,000 sequences were called active.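 The calls were made as follows: active = gene knockdowns whose robust z-score for IL-1 alpha signal is at least 2 or at most -2, so actives lie on both sides; inactive = the rest.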 The list shows a part of the results.

The assay can be described thus: Components of the Cytosolic LPS Sensing Pathway: Gene Identification via Genome-wide siRNA Screen.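 Also: robust z of the log signal after scaling to non-targeting control siRNA wells of the plate.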 The conditions noted are these: RAW264.7 macrophages, IL-1a HTRF, actives lie on both sides, screened at 100 nM (by protocol), cells primed 5 h with Pam3CSK4 first. In outline: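 Cells (RAW264.7, 1×10^4 per well) were transfected with siRNA at 100 nM and cultured 48h at 37 degrees C. Pam3CSK4 was added for 5 hours; LipidA transfection followed for 24 hour. IL-1a was then measured by HTRF.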
(TR-FRET usually uses a lanthanide donor and a delayed reading to cut background.)
CCUUGACUUUAAUUUGAAGTT against Bpifc: the z-score was inactive: 0.319.

On to CCACAUGGCUAUUCACUAUTT against Spata7, for which the z-score is inactive: -0.532. The same measure for GCAGGACUUACAUGAGAAUTT against Fam13c: inactive: 0.534.

Take GGAAUGAAAAAGUUCUACATT against Dnajc10: the z-score was inactive: 1.1. With GGAGCUGUGACUAGGAAUGTT against Abo, the z-score was inactive: 1.5. The same measure for CCUCUAUGAUUUGUAGAACTT against Thap12: inactive: 0.75; for CGACAACCUCAACAACGUGTT against Tom1: inactive: -0.377; for GGGAUCUGUGUUGAAUGAATT against Fam180a: inactive: 0.131.

Consider GGAGGAAUCUCCAGAAGGUTT against Agap1, for which the z-score is inactive: -0.694. The same measure for GCUUGAGAUAAGUGGGUUUTT against Fam98b: inactive: 0.769; for GCACAUGUCAGACACGGCATT against Hdc: inactive: -1.01.

Turning to GGUACUUCUGGAAAAGUACTT against Spcs2, the z-score was inactive: 0.504.

Regarding GGAGGAAGAGAUGAUUUUATT against Mia3, the z-score was inactive: 0.365.

For the sequence GGAAGCACUUCUGCUUUCUTT against Azin2, the z-score was inactive: -0.0234. The same measure for CGGUGUACGAGUUAGAGAATT against Crybb3: inactive: 1.75; for “GGAGUUUCUAACUAAAUUCTT against 4932411N23Rik”: inactive: 0.513.

Regarding GGACAUGGCUCUAAAAUUUTT against Maco1, the z-score is inactive: -1.1. In the case of GGUUGAGGACGUAAAAAUCTT against Ccdc9b it was inactive: -0.259; in that of GGAUCUUAGCAUGUCAACATT against Zfp330, inactive: -1.29. In the case of CCUUUAUGGGACACUAUUUTT against Alb it was inactive: 0.588. The same measure for GGCUUUCAGGUAUUAUAAGTT against Icmt: inactive: -0.0289; for CCUUUGAACCUCUAACUUUTT against Xpnpep1: active: 3.62; for GGAGCCAGCUCUCAAUGAATT against Psme1: inactive: 0.00366. On to GCGCAAUAAUCAGACGGUUTT against Zhx2, for which the z-score is inactive: -0.624.

Consider GGCACAAAUAUUCUGUACUTT against Elapor2, for which the z-score was inactive: 1.05. In the case of GCACUUACCAGUAUGCGCUTT against Ppp1r16b it was inactive: 0.339; in that of GGCGUAGGUUCUUUACUGGTT against Sgip1, inactive: 0.893; in that of CCACUGUGUGACAUUAAAGTT against Metap2, inactive: -0.799. The same measure for GGAAAGUGGUGCAUGACUATT against Sfxn1: inactive: -1.2; for GCUCUUACAUAGAACUUUGTT against Tpbg: inactive: -0.218. In the case of GCAGUUGAAUAUCAGACUGTT against Obox5 it was inactive: -0.973; in that of “GCUAGAUUCAAUCAGGUGUTT against 9530068E07Rik”, inactive: -0.455. In the case of GGAUUUGACCGGCUAAUACTT against Snrnp40, the z-score was inactive: -0.776. Consider CCAGACUACGGUGCUAAGATT against Defb21, for which the z-score was active: 2.49.

On to GCAGAUUUACCCUCUAUAATT against Peli2, for which the z-score is inactive: -1.5.

Consider GCUAGACCAGAAGAAAGUATT against Gid8, for which the z-score was inactive: -1.65. In the case of CCUUGUACAACAAUGGUGCTT against Git2, the z-score is inactive: -1.01. As for GGACUUUGUAUAUUGGUUUTT against Ets2, the z-score is inactive: 1.73.

As to CCCAAAAUUGGUCAUGAUUTT against Dync1i1, the z-score was inactive: -0.206.

Turning to GGAUGAGCUGAAUUUCCUATT against Clec2d, the z-score is inactive: -1.17. In the case of GGUGGAGUCUGAACUUAAUTT against Nfatc4 it was inactive: -0.0623; in that of GGCCUACUUGGAUGUGGACTT against Rtn3, inactive: 0.267; in that of GGACUGUCAGUGAUGACUCTT against Hes2, inactive: 0.854. As for GGGUAAUUUUAGCAGCGAGTT against Btbd9, the z-score is inactive: -0.822.

For the sequence GGACAAGCAACUGAAUGAGTT against Macrod1, the z-score was inactive: -0.411.

For the sequence CCCACGAGGGAUAUAUCUGTT against Cd3d, the z-score was inactive: -0.994. The same measure for GGAUGUCUUGCUUCACCGUTT against Dstyk: inactive: -0.674; for GGACUCCUACAGGAAACAATT against Kras: inactive: -1.11. In the case of GCGCAGUGAAUCAAAUGUUTT against Asrgl1 it was inactive: 0.802; in that of GGGAAAAGUUUUAAAGAGCTT against Il31ra, inactive: 0.00281; in that of GGCAGAGAGUCUACAUAUGTT against Bcar3, inactive: -0.272. In the case of GCAAUUUGCUCAUCUCUAATT against Dcc it was inactive: 1.89; in that of GGUCACUCAGAAUAAUGCUTT against Lyrm4, inactive: 0.755.

For the sequence GGCUAUAACCAGCCUCAUGTT against Tmem220, the z-score is inactive: -1.37.

On to GAUCUUCACCAAUAAGUGUTT against Zfand2b, for which the z-score was inactive: 0.367. In the case of GGUUACUCCUUUUUCAAUGTT against Elf5 it was inactive: -0.636.

On to GGCCUUUGAUGACUUCAUCTT against Cacna1h, for which the z-score is inactive: 0.904. In the case of GGCCUGAAGAAAAAAACCCTT against Gas6 it was inactive: -0.55; in that of GCUCUUUAUCCUAAUCCGGTT against Mif4gd, inactive: 0.187; in that of GCCCAAGUAGCUCUACAGATT against Zbtb3, inactive: 1.39. In the case of GAUGGUCACCCUGCUGAUUTT against Cmtm7 it was inactive: 1.48; in that of GGCCAGUAAGACAGAUUAUTT against Rabl3, inactive: 0.119; in that of GUUACUACAACAGCUACUATT against Krtap19-4, active: -2.37. The same measure for CCUUUGUUCUGCUCUGUUUTT against Tas2r126: inactive: -1.67. Take GGAAAGCUCUUUGUGUCGGTT against Gramd3: the z-score was inactive: -0.476. In the case of CCUGAUUUGAAGAACAAAATT against Galnt11 it was inactive: 1.29; in that of GGCCCAUUUUGGUGUGCAUTT against Hyal3, active: -2. The same measure for GUACCUCAUGGGCAAGUUCTT against Foxq1: inactive: 0.579; for GGCCAGGACCUAAAUACAATT against Tmem231: active: 3.25. In the case of GGUGUUCAAACUGAUUGGATT against Ckap5 it was inactive: 1.73; in that of GGAUCUGUUCAGCAAGUCUTT against Cpne6, inactive: 1.01.

As for GGAAUAGGUCUAGCUGUUGTT against Olfr593, the z-score is inactive: 0.0556. In the case of GGGACUAGACUUCUUCGGATT against Ddx52 it was inactive: 0.186; in that of GGUGUCCAACAAGCUCAAGTT against F8a, inactive: -0.337. Take GCCACUGUGUGGAAUAAAUTT against Cblif: the z-score is inactive: 0.727.

On to GCAAUAUGGCCUCAGUCUCTT against Trim60, for which the z-score was inactive: -0.912. Regarding UCCUUUCUAAUAUCCUCCATT against Olfr912, the z-score was inactive: -0.971. In the case of GCAUCAAGGCAACAAAGAUTT against Spats2l, the z-score was inactive: 0.522. In the case of GGCUAUGAUGUUCACAAAUTT against Cog4 it was inactive: -0.391. In the case of GGGUUAAUGACUAAAAUGATT against H13 it was inactive: -1.07.

As to GGAUUUUACAUUUCUACACTT against Tmprss15, the z-score was active: 2.14. Regarding GGGACUUAGACACAGGAAGTT against Pcdhb15, the z-score is inactive: -1.17.

For the sequence CCCAAGGUGAACAUAAUCUTT against Stard7, the z-score is inactive: -1.58. In the case of GGGCCAAGAUACCAAGAGUTT against Spout1 it was active: -2.71; in that of GCAGAUGCUUCGGUGAAAATT against Defb15, inactive: 0.998; in that of GCGGAAAGAAUCUUGGGAATT against Bcas1, inactive: 1.07. In the case of CCUGAUAUUCAAUCUGCACTT against Nelfb it was inactive: -0.197; in that of CCCUCAUACAGAAUUAGUGTT against Zcchc14, inactive: 0.179; in that of GCGAAUCACGCUGAAAGUCTT against Cd274, inactive: -1.06. In the case of GGUUGUGGAACAAAGAGAATT against Gucy1b1 it was inactive: -0.446; in that of GGAAAAGGUUUAUUUUGCUTT against Mtmr6, inactive: 0.273; in that of GGGCCCUGUUUCAAAACUUTT against Tmem161b, inactive: -0.558. In the case of CGUGUCUGUUCUCGUUCUGTT against Ypel3, the z-score was inactive: -0.233. The same measure for GGUUUCCAGUUAUCUUAAUTT against Glipr1l2: inactive: 1.46. The same measure for GGAAAAGACGGAGAGGCAUTT against Hey1: inactive: -0.399; for GGCAAUGACUAGAGUAAGATT against Kdm5a: inactive: -1.4. In the case of GGUCAUCAAGCAGUUUCGCTT against Coq7, the z-score is inactive: -1.36.

With GGAGAUCUGCUCUAAUUAUTT against Eif1ax, the z-score is active: 2.21.

For the sequence GGAAUCUUUAUCCACAUUCTT against Chst15, the z-score is inactive: 0.943. In the case of CCAUCAUGCCCUGUUUGCATT against Cdc42ep3 it was inactive: 0.393; in that of GGUGGUGAUACGUACAGAATT against A2m, inactive: 1.78; in that of CCAUAUGGCUUAUCUUAUUTT against Adam5, inactive: 0.138.

With GGAUGCCUAUCACAAGCAGTT against Pacsin1, the z-score is inactive: -0.478. In the case of GGCUCACGCUCGUUACCUATT against Nwd1 it was inactive: -1.86; in that of GCUCAUCAAGCUGUACCUATT against Eif2b1, inactive: 1.16. In the case of GCCACACGUGUGCAAAGAUTT against Zfp524 it was inactive: 1.51; in that of CCCUGGUAUUUCUGUUAUATT against Slc35f6, inactive: -1.5.

Values taken from PubChem BioAssay AID1508600 (Functional Genomics Laboratory (NCATS/FGL), 2020).
